Experimental data: PMC8168955
Changes are numbered by the printed parent chain. Results are given in words; binding and its absence hold for the method and conditions named. Binding seen in cells or lysates may run through a third protein. Some binding calls cover weakened binding; strength is not graded here. Tags and fused reporters may be left off the sequences shown.

What was measured:
[1] = target: T1, human NLRP1-3xFLAG P1214R (human), Q9C000; test: co-IP; anti-FLAG-M2-agarose precipitation of NLRP1-3xFLAG (WT or mutant) from HEK293T lysates in 1% NP40 lysis buffer with 150 mM NaCl, 4 hours or overnight at 4°C; DPP9 detected by immunoblot; in Fig 2B cells were treated with 2 μM Talabostat or dimethyl sulfoxide before harvest; details: remark: other sources report otherwise
T1 chain: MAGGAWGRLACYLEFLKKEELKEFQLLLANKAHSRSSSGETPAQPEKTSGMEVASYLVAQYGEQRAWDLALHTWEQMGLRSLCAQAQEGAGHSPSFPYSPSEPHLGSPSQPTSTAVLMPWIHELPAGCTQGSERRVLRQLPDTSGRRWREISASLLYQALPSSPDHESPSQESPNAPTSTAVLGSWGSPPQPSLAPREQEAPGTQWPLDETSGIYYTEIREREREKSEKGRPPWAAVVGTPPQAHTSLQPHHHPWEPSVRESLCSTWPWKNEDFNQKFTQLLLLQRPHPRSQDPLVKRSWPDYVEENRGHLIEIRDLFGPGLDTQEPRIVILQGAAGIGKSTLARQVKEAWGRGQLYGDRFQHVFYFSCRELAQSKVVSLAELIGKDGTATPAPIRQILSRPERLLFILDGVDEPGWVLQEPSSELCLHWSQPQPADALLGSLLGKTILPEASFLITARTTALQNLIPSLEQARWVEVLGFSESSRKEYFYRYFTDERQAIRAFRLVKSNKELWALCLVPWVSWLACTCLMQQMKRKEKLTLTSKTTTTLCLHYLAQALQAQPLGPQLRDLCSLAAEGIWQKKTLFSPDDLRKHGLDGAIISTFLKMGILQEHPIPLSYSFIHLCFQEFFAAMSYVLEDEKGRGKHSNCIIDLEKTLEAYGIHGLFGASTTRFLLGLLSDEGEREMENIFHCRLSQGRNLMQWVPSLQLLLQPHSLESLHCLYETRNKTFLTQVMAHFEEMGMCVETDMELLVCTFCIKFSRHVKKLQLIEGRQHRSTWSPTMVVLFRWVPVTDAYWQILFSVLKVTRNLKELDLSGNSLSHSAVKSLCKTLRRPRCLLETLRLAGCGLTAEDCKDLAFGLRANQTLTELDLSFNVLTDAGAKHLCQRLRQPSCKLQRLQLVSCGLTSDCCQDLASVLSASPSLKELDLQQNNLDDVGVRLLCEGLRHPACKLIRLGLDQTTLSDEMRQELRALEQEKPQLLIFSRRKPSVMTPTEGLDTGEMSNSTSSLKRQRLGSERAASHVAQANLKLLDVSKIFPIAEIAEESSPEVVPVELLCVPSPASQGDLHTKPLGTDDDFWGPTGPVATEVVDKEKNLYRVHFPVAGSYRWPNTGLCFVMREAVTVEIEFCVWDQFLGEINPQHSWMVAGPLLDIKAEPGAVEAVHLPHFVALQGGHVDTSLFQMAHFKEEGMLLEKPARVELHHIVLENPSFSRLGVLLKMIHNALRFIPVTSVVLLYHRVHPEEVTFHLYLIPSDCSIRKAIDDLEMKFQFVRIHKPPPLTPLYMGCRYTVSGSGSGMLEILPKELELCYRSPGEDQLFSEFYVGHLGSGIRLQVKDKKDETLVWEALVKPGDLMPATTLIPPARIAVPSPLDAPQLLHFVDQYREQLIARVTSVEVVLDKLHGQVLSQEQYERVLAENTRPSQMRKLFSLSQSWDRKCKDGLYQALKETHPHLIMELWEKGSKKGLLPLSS

[2] = target: T2, human NLRP1-3xFLAG, wild type (human), Q9C000; test: as above; details: remark: other sources report otherwise
T2 chain: T1 chain with R1214P

B1: dipeptidyl peptidase 9, Q86TI2 1-863 (enzyme)
chain: MATTGTPTADRGDAAATDDPAARFQVQKHSWDGLRSIIHGSRKYSGLIVNKAPHDFQFVQKTDESGPHSHRLYYLGMPYGSRENSLLYSEIPKKVRKEALLLLSWKQMLDHFQATPHHGVYSREEELLRERKRLGVFGITSYDFHSESGLFLFQASNSLFHCRDGGKNGFMVSPMKPLEIKTQCSGPRMDPKICPADPAFFSFINNSDLWVANIETGEERRLTFCHQGLSNVLDDPKSAGVATFVIQEEFDRFTGYWWCPTASWEGSEGLKTLRILYEEVDESEVEVIHVPSPALEERKTDSYRYPRTGSKNPKIALKLAEFQTDSQGKIVSTQEKELVQPFSSLFPKVEYIARAGWTRDGKYAWAMFLDRPQQWLQLVLLPPALFIPSTENEEQRLASARAVPRNVQPYVVYEEVTNVWINVHDIFYPFPQSEGEDELCFLRANECKTGFCHLYKVTAVLKSQGYDWSEPFSPGEDEFKCPIKEEIALTSGEWEVLARHGSKIWVNEETKLVYFQGTKDTPLEHHLYVVSYEAAGEIVRLTTPGFSHSCSMSQNFDMFVSHYSSVSTPPCVHVYKLSGPDDDPLHKQPRFWASMMEAASCPPDYVPPEIFHFHTRSDVRLYGMIYKPHALQPGKKHPTVLFVYGGPQVQLVNNSFKGIKYLRLNTLASLGYAVVVIDGRGSCQRGLRFEGALKNQMGQVEIEDQVEGLQFVAEKYGFIDLSRVAIHGWSYGGFLSLMGLIHKPQVFKVAIAGAPVTVWMAYDTGYTERYMDVPENNQHGYEAGSVALHVEKLPNEPNRLLILHGFLDENVHFFHTNFLVSQLIRAGKPYQLQIYPNERHSIRCPESGEHYEVTLLHFLQEYL
B1 was tested, and the binding [1] was “no binding” and the binding [2] was “binds”.
